Structures are written as SMILES. Some of the results follow. These are further read-outs of the screen, such as a control signal, another cell line or another target. No call is given for them. Most of these compounds were active or inconclusive in the main read-out, so they are no random draw. Words in brackets tell the shape of the fitted curve; partial curves, single points and poor fits give uncertain potencies.

Usually AC50 stands for the concentration giving half of the maximal activity seen. A lower AC50 goes with greater potency.

The assay can be described thus: qHTS Assay for Lipid Storage Modulators in Drosophila S3 Cells.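 On cell number change: cells counted by Cell Tracker Red CMTPX staining in the red channel.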 To be noted: BODIPY lipid droplet fluorescence, 18-24 h; for cell number change: measured here: cell count max response, cells fed with added oleic acid. The gist of the method: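 Drosophila S3 cells loaded with oleic acid (400 uM, as added) and compounds at several concentrations; lipid droplets imaged by 488-nm laser-scanning cytometry, 500–530 nm intensity and object ratio to cell channel. Percent activity normalized to 20 uM Triacsin C.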

Where [1] appears, read: measured here: lipid fluorescence (Fed channel) AC50, cells fed with added oleic acid.
Setting [2] is: measured here: cell number channel AC50, cells fed with added oleic acid.

In the case of `Cc1noc(C(=O)Nc2cccnc2)c1Cl`, the cell number change amounted to 3.03%. In addition, the AC50 under setting [1] is 11.6 µM [rising, partial curve, poor fit].

`Cc1ccc(-c2cc(-c3ccccc3C)[nH]n2)c(O)c1`: the cell number change was -62.4%. Moreover, under setting [2], the AC50 is 4.11 µM [falling, partial curve]. Also, the AC50 under setting [1] is 4.61 µM [falling, partial curve]. With `Cc1c(Cl)cccc1NC(=O)c1cccnc1`, the cell number change was -1.84%. Under setting [1], the AC50 is 29.1 µM [rising, single point]. On to `O=C(N/N=C/C=C/c1ccco1)c1cccnc1`, for which the cell number change is -4.18%. Further, under setting [2], the AC50 was 0.517 µM [falling, full curve, poor fit]. With `Cc1nc2ccccc2c(N)c1C(=O)/C=C/c1ccccc1`, the AC50 under setting [1] was 18.4 µM [falling, partial curve]. With `CCc1c(C)c2cc(Cl)c(O)c(CN3CCCC3)c2oc1=O`, the cell number change was found to be 36.9%. For the same molecule, under setting [1], the AC50 is 29.1 µM [rising, single point]. Regarding `O=c1[nH]c(NCc2ccco2)nnc1Cc1ccccc1Cl`, the cell number change came to 70.1%. For the same molecule, the half-maximal activity concentration (AC50) under setting [2] is 18.4 µM [rising, single point]. Under setting [1], the AC50 was 29.1 µM [rising, single point]. Regarding `O=C(CCC(=O)NC1CCCCCC1)Nc1nnc(C(F)(F)F)s1`, the cell number change was 3.14%. As to `C=CCn1c(SCC(=O)N2CCCCC2)nc(O)cc1=O`, the AC50 under setting [1] was 29.1 µM [falling, single point].

As for `Cc1ccc(-c2nn(C)c(=O)c3ccccc23)cc1S(=O)(=O)NCCN1CCOCC1`, the AC50 under setting [2] is 0.366 µM [rising, single point]. For the molecule `CC(C)(C)C(=O)Cn1c(=N)n(Cc2ccccc2Cl)c2ccccc21`, the cell number change came out at 59.4%. Besides, under setting [2], the AC50 was 13 µM [rising, partial curve]. Besides, under setting [1], the AC50 is 13 µM [rising, partial curve]. Regarding `O=C(COc1ccc(S(=O)(=O)NCc2ccccc2)cc1Cl)NCc1ccccn1`, the cell number change is -2.63%. In addition, the AC50 under setting [1] was 35.5 µM [rising, single point]. Take `COC(=O)c1c(-c2ccco2)csc1NC(=O)C1CC=CCC1C(=O)O` (stereo unspecified): under setting [1], the AC50 was 0.092 µM [falling, full curve, poor fit]. In the case of `CC(C)Cc1nc2oc3c(NCC4CCCO4)ncnc3c2c2c1CCC2` (stereo unspecified), the cell number change was -1.3%. For the same molecule, the AC50 under setting [1] was 0.291 µM [rising, full curve].

Turning to `Cc1ccc(S(=O)(=O)CCC(=O)OCC(=O)NNC(=O)c2ccc([N+](=O)[O-])cc2)cc1`, the cell number change was 4.54%. Further, the AC50 under setting [1] was 0.00517 µM [falling, full curve, poor fit]. Take `Cc1ccc(C(=O)Nc2ccncc2)cc1[N+](=O)[O-]`: the cell number change is -20.7%.

On to `COC(=O)c1ccc(CNC(=O)COc2ccccc2Br)o1`, for which the cell number change worked out at 110%. In addition, under setting [2], the half-maximal activity concentration (AC50) was 18.4 µM [rising, partial curve]. Regarding `CC1CN(C(=O)c2cc3cc(Cl)ccc3[nH]2)CC(C)O1` (stereo unspecified), the cell number change was determined as 48.6%. For the same molecule, the AC50 under setting [2] is 1.84 µM [rising, full curve].

Consider `Cc1ccc(NC(=O)Cn2ccc(=O)[nH]c2=O)cc1`, for which the cell number change worked out at 11.8%. Also, the AC50 under setting [2] is 7.31 µM [rising, single point]. Turning to `Cc1sc(NC(=O)c2oc3ccccc3c2C)c(C#N)c1C`, the concentration at half-maximal activity (AC50) under setting [1] is 0.13 µM [rising, full curve, poor fit].

With `CCn1c(CSc2nc3ccccc3s2)nnc1SCC(=O)NCC(=O)OC`, the AC50 under setting [1] was 29.1 µM [falling, single point]. On to `Cc1ccc(CN(C(=O)Cc2cccs2)C(C(=O)NC2CCCC2)c2ccncc2)cc1` (stereo unspecified), for which the cell number change came out at 15.2%. The AC50 under setting [1] was 4.11 µM [rising, single point].

For `CCN1CCc2nc3ccccc3c(C(=O)Nc3ccc(C#N)cc3)c2C1`, the cell number change was 4.34%.

Take `CCn1cc(Cl)c(C(=O)Nc2cc(C(=O)OC)cc(C(=O)OC)c2)n1`: the cell number change turned out to be 12.3%. Further, the AC50 under setting [1] was 0.00461 µM [rising, full curve, poor fit]. Turning to `COc1ccc(S(=O)(=O)N(C)c2ccc(C(=O)N3CCN(c4ccccc4)CC3)cc2)cc1OC`, the cell number change was -28.5%. In addition, the AC50 under setting [1] was 29.1 µM [falling, single point]. In the case of `NS(=O)(=O)c1ccc(NCc2cc(Cl)ccc2OCc2ccccc2F)cc1`, the cell number change is 14.2%. Moreover, the concentration at half-maximal activity (AC50) under setting [1] is 29.1 µM [rising, partial curve]. For `O=[N+]([O-])c1ccc(Oc2ccc(S(=O)(=O)N3CCCCC3)cc2)cc1`, the cell number change is 9.1%. Moreover, the AC50 under setting [2] was 3.66 µM [falling, single point]. Consider `Cc1nnc(SCC(=O)Nc2ccc(F)cc2F)n(N)c1=O`, for which the cell number change worked out at 10.6%. For the same molecule, the AC50 under setting [1] was 29.1 µM [rising, single point]. As to `CC(C)c1cc(C(F)(F)F)n2nc(C(=O)Nc3ccc4c(c3)OCO4)cc2n1`, the cell number change was -9.57%. Besides, under setting [1], the AC50 is 13 µM [rising, partial curve]. For the molecule `NC(=O)C1CCN(c2nc(-c3ccccc3)nc3ccccc23)CC1`, the AC50 by setting is: under setting [2], 2.59 µM [rising, partial curve]; under setting [1], 2.91 µM [rising, partial curve]. Regarding `Cc1ccc(/C=N/n2c(C3CCCCC3)n[nH]c2=S)s1`, the cell number change is -31.1%. The AC50 under setting [2] is 23.1 µM [falling, single point].

For the molecule `Cc1ccc(/C=C(\NC(=O)c2ccc(C)cc2)c2nc(=S)[nH][nH]2)cc1`, the cell number change was -63.3%. The AC50 under setting [2] is 25.9 µM [falling, partial curve]. Moreover, the AC50 under setting [1] is 23.1 µM [falling, partial curve].

As to `CCN(CC)c1ccc(/C=N\NC(=O)c2cccc3cc[nH]c23)cc1`, the cell number change stood at 11.3%. For `CC1=CC(=C2C(=O)c3ccccc3C2=O)C=C(C)O1`, the cell number change is 33.1%. Further, under setting [2], the AC50 is 18.4 µM [rising, single point]. Further, under setting [1], the AC50 is 29.1 µM [rising, single point].

For `CCN(CC(=O)Nc1ccc2c(c1)OCCO2)C(=O)COc1ccc(C)cc1`, the cell number change was determined as 27.3%. Besides, the AC50 under setting [1] was 7.31 µM [rising, partial curve, poor fit]. On to `CCC(=O)N1CCc2cc(S(=O)(=O)NCCC(=O)NCc3ccc(F)cc3)ccc21`, for which the cell number change was determined as 17.9%. The half-maximal activity concentration (AC50) under setting [2] is 7.31 µM [rising, single point]. `COc1ccc(Cl)cc1NC(=O)CN(C)C(=O)Cc1ccc(-c2ccccc2)cc1`: the cell number change was -42.6%. In addition, under setting [2], the AC50 was 4.11 µM [falling, partial curve]. Besides, the AC50 under setting [1] is 6.51 µM [falling, partial curve]. For `O=S(=O)(c1cccs1)N1CCCc2cccc(O)c21`, the cell number change came to 71.4%. For the same molecule, under setting [2], the AC50 is 29.1 µM [rising, single point]. Turning to `O=C(CN(C(=O)c1csnn1)c1ccccc1Cl)NC1CCCC1`, the cell number change is -18.3%. Further, under setting [1], the AC50 was 0.58 µM [falling, single point].

For the molecule `Cc1nc(-c2ccccc2)sc1-c1ccn[nH]1`, the cell number change stood at 5.76%. As to `CCOC(=O)C1=C(C)NC(=S)NC1c1ccc(OC(=O)c2ccco2)cc1` (stereo unspecified), the cell number change was 19.6%. Moreover, the AC50 under setting [1] is 29.1 µM [rising, single point]. Take `Cc1ccc(S(=O)(=O)Nc2ccc(NC(=O)Nc3cccc(C(F)(F)F)c3)cc2)cc1`: the cell number change was -54.3%. Moreover, under setting [2], the half-maximal activity concentration (AC50) is 23.1 µM [falling, partial curve, poor fit]. Under setting [1], the AC50 was 20.6 µM [falling, partial curve]. `Cn1cc(/C=C/c2cc[n+](C)cc2)c2cc(Cl)ccc21`: the cell number change was -7.84%. The AC50 under setting [1] is 32.6 µM [falling, single point].

`CCOc1ccc2nc(-c3cc(NC(C)=O)ccc3O)sc2c1`: the cell number change turned out to be 19.7%. In addition, the AC50 under setting [1] is 0.206 µM [rising, partial curve]. `CCN(Cc1ccccc1)C(=O)COC(=O)c1cc(Cl)nc(Cl)c1`: the cell number change was -30.3%. The AC50 under setting [2] is 0.411 µM [falling, full curve, poor fit]. Moreover, the AC50 under setting [1] is 0.58 µM [falling, full curve, poor fit]. On to `COc1cccc(CN(C)C(=O)c2ccc(NS(=O)(=O)c3ccc(F)cc3)cc2)c1OC`, for which the cell number change turned out to be 50%. Besides, the AC50 under setting [2] was 29.1 µM [rising, single point]. The AC50 under setting [1] is 6.51 µM [falling, single point]. `O=C(CNC(=O)c1ccc(Cl)cc1Cl)OCC(=O)c1ccc2c(c1)OCCO2`: the cell number change came out at 54.8%. Also, under setting [2], the AC50 is 2.31 µM [rising, partial curve, poor fit]. Regarding `Cc1c(NC(=O)Nc2ccc(F)cc2F)c(=O)n(-c2ccccc2)n1C`, the cell number change is -10.3%. For the same molecule, the AC50 under setting [1] is 0.58 µM [rising, single point]. With `Fc1ccc(N/N=C/c2ccc(N3CCOCC3)cc2)c(F)c1`, the cell number change is 16.5%. The AC50 under setting [1] was 0.517 µM [rising, full curve].

`Cc1ccc(C(=O)CCS(=O)(=O)c2ccc(Br)cc2)cc1`: the cell number change is -41.6%.

For `Cc1cc(C)n(-c2nc3nonc3nc2Nc2cccc(C)c2C)n1`, the cell number change was -11.9%. Besides, the AC50 under setting [1] is 0.82 µM [rising, single point]. Regarding `Cc1sc2nc(CSc3ccc([N+](=O)[O-])c(C(F)(F)F)c3)[nH]c(=O)c2c1C`, the AC50 was 29.1 µM [rising, single point] under setting [2] and 0.116 µM [falling, full curve, poor fit] under setting [1]. For `C#Cc1ccc(CN2CCC(N3CCC(C(=O)NCc4ccccn4)CC3)CC2)cc1`, the cell number change is -63.7%. Also, the AC50 under setting [2] was 23.1 µM [falling, single point]. For the same molecule, the AC50 under setting [1] was 29.1 µM [falling, single point]. For the molecule `CCOC(=O)N1CCC(NC(=O)Cn2ncc3ccccc32)CC1`, the cell number change was 10.7%. The AC50 under setting [1] was 6.51 µM [falling, single point]. `Cc1ccc(NC(=O)C2CC(=O)n3ncnc3N2)cc1` (stereo unspecified): the cell number change was -30.5%. The half-maximal activity concentration (AC50) under setting [2] was 0.082 µM [falling, full curve]. Under setting [1], the AC50 was 1.16 µM [falling, full curve]. `Cn1c(CN2CCCCC2)nc2cc(NS(=O)(=O)c3ccc(Cl)cc3)ccc21`: the cell number change turned out to be 0.234%.

In the case of `Cc1ccc(C2CC(c3ccco3)=NN2S(C)(=O)=O)cc1` (stereo unspecified), the cell number change came out at 5.14%. Moreover, under setting [1], the AC50 was 16.4 µM [falling, partial curve]. Consider `COc1ccc(CNC(=O)c2c(C)cc(=O)oc2C)cc1OC`, for which the cell number change stood at 4.31%. Under setting [1], the AC50 is 6.51 µM [falling, single point]. With `CC(Oc1ccc(F)cc1)C(=O)Nc1cc(S(=O)(=O)N2CCOCC2)ccc1N1CCCCC1` (stereo unspecified), the cell number change is -19%. Under setting [1], the AC50 is 16.4 µM [falling, single point].

(Values after PubChem BioAssay AID2685 (National Center for Advancing Translational Sciences (NCATS), 2010).)
